Results on 9 molecules are retold here after article PMC7772139.

Results are given in words; binding and its absence hold for the method and conditions named. For part of these data: Binding can be weak; no strength is given. For part of these data: In cells and extracts the contact can be indirect. For part of these data: Where a sequence is shown, tags or fusion partners need not be part of it.

The chains are these.
B1: PAP7/PTAC14 (protein, UniProt Q84JF5 1-483)
chain: MASSVSLQFLTNTFISKPQGFCNGIVSAPRPRSNLLRDRQNGVRPIKVASIETQPFPLFQSPASEESSSSELETADPDFYKIGYVRSVRAYGVEFKEGPDGFGVYASKDIEPRRRARVIMEIPLELMITIRQKHPWMFFPDIVPIGHPIFDIINSTDPEIDWDIRLACLLLFSFDRDDHFWRLYGDFLPAADECSSLLLATEEDLAELQDPDLVSTIRQQQKRILDFWEKNWHSGVPLKIKRLAEDPERFIWAVSMAQTRCISMQTRVGALVQELNMMIPYADMLNHSFEPNCFLHWRPKDRMLEVMSNAGQDIKKGEEMTINYMPGQKNNMLMERYGFSTPVNPWDAIKFSGDSRIHLNSFLSVFNIYGLPEEYYHDSELSRGDTFVDGAVIAAARTLPTWSDIDLPPIPSAERKAVKELQDECRKMLAEYPTTAEQDQKLLDSMSEARTTFATAVKYRMHRKMFIGKIIKALDIYQERLLY
B2: PAP5/PTAC12 (protein, UniProt F4IHY7 1-527)
chain: MASISTTTWLYRGQVCTDSGKSSNCIVQRRVKCGFPLKTLHAGITSRDRSLRHCIKCKKEDGDGDVSEGSKKSEEGFEYVTVERHPYHSYMDSTSGKLEPASGARASIPGEDYWPEGTSSRVRAARAPQPAGESSSFPSYGKNPGSRRKKNRKATEENVTVETNDEVSDSEDSSEEEENDSSDGFVTYKNEFEREEEETGFELDKKLGRPHPFIDPTKKKQIEKTLTSDESWWNWRKPEKEQWSRWQRRRPDVETVFLKAMAETGQVKLYGEEPTLTETSLYRARRHLFKEERLQAERERLAKEGPMAFYSEWVKAWKRDTSREAVQKHFEETGEDENTQLIEMFSHQTDREYRIMMGTDIRIKRDPLAMRMREDQIKQIWGGDPVYPTINYIQDPNAVMDFRGPDFHEPTPNMLSYLKENGKVISREMHEALLTKEKTEQLEVPDMDDAMAQAVDIGENDDDEDDADVEKDDEKVPRNWSVLKETPELRTAKPKPKKEGRMSLDEAVDDAENLTDFLMDFEEETDP
B3: PAP12/PTAC7 (protein, UniProt Q8VZV9 1-161)
chain: MASFTCSSPSSILPIIDTRSGNLRCTFQSQVSCGIQRDDNGRRVWRRRTLTKKDDMLRYKMQRVPFVEEQVRKIREVGKVMTMDIEQLLLREDNRFEFVNSVAAEATEYVDKNRDEYGGSKKAIFHVLSNRVNDLGFDRPEAYVEADPYKPGPGYLLEYYT
B4: PAP5/PTAC12 lacking the N-terminal transit peptide, His fusion (protein, UniProt F4IHY7 31-527)
chain: VKCGFPLKTLHAGITSRDRSLRHCIKCKKEDGDGDVSEGSKKSEEGFEYVTVERHPYHSYMDSTSGKLEPASGARASIPGEDYWPEGTSSRVRAARAPQPAGESSSFPSYGKNPGSRRKKNRKATEENVTVETNDEVSDSEDSSEEEENDSSDGFVTYKNEFEREEEETGFELDKKLGRPHPFIDPTKKKQIEKTLTSDESWWNWRKPEKEQWSRWQRRRPDVETVFLKAMAETGQVKLYGEEPTLTETSLYRARRHLFKEERLQAERERLAKEGPMAFYSEWVKAWKRDTSREAVQKHFEETGEDENTQLIEMFSHQTDREYRIMMGTDIRIKRDPLAMRMREDQIKQIWGGDPVYPTINYIQDPNAVMDFRGPDFHEPTPNMLSYLKENGKVISREMHEALLTKEKTEQLEVPDMDDAMAQAVDIGENDDDEDDADVEKDDEKVPRNWSVLKETPELRTAKPKPKKEGRMSLDEAVDDAENLTDFLMDFEEETDP
B5: PAP12/PTAC7 lacking the N-terminal transit peptide, His fusion (protein, UniProt Q8VZV9 33-161)
chain: CGIQRDDNGRRVWRRRTLTKKDDMLRYKMQRVPFVEEQVRKIREVGKVMTMDIEQLLLREDNRFEFVNSVAAEATEYVDKNRDEYGGSKKAIFHVLSNRVNDLGFDRPEAYVEADPYKPGPGYLLEYYT
B6: PAP7/PTAC14 lacking the N-terminal transit peptide, His fusion (protein, UniProt Q84JF5 63-483)
chain: ASEESSSSELETADPDFYKIGYVRSVRAYGVEFKEGPDGFGVYASKDIEPRRRARVIMEIPLELMITIRQKHPWMFFPDIVPIGHPIFDIINSTDPEIDWDIRLACLLLFSFDRDDHFWRLYGDFLPAADECSSLLLATEEDLAELQDPDLVSTIRQQQKRILDFWEKNWHSGVPLKIKRLAEDPERFIWAVSMAQTRCISMQTRVGALVQELNMMIPYADMLNHSFEPNCFLHWRPKDRMLEVMSNAGQDIKKGEEMTINYMPGQKNNMLMERYGFSTPVNPWDAIKFSGDSRIHLNSFLSVFNIYGLPEEYYHDSELSRGDTFVDGAVIAAARTLPTWSDIDLPPIPSAERKAVKELQDECRKMLAEYPTTAEQDQKLLDSMSEARTTFATAVKYRMHRKMFIGKIIKALDIYQERLLY
B7: PAP3/PTAC10 (protein, UniProt F4JF21 1-668)
chain: MQICQTKLNFTFPNPTNPNFCKPKALQWSPPRRISLLPCRGFSSDEFPVDETFLEKFGPKDKDTEDEARRRNWIERGWAPWEEILTPEADFARKSLNEGEEVPLQSPEAIEAFKMLRPSYRKKKIKEMGITEDEWYAKQFEIRGDKPPPLETSWAGPMVLRQIPPRDWPPRGWEVDRKELEFIREAHKLMAERVWLEDLDKDLRVGEDATVDKMCLERFKVFLKQYKEWVEDNKDRLEEESYKLDQDFYPGRRKRGKDYEDGMYELPFYYPGMVCEGTVTTLHLYQGAFVDIGGVHEGWVPIKGNDWFWIRHFIKVGMHVIVEITAKRDPYRFRFPLELRFVHPNIDHMIFNKFDFPPIFHRDGDTNPDEIRRDCGRPPEPRKDPGSKPEEEGLLSDHPYVDKLWQIHVAEQMILGDYEANPAKYEGKKLSELSDDEDFDEQKDIEYGEAYYKKTKLPKVILKTSVKELDLEAALTERQHHNKLMMEAKARGEGYKIDKLRRNIEMDEYDFLHWRRSLEEREALLRDISSRQALGLPLEEPGRYKPGSFFGKDQYDPTSALYQYDYWGEPKNSEISKQERMKDAHNKSIVGKGNVWYDMSYDDAIKQTIEKRKEGSTLASQEEETESEEEEEDDDDFDDFDYSILSDESSIGYSEQQPLVNGTQVLTD
B8: PAP6/FLN1 (protein, UniProt Q9M394 1-471)
chain: MASLLIFPHLHHFDSSLDRREVLVVRHSQASRRFLTPKASINGSGITNGAAAETTSKPSRKGRKKKQTSTVIEKDNTETDPELNPELADYDDGIEFPYDDPPLVCCFGAVQKEFVPVVRVHDNPMHPDMYSQWKMLQWDPPEFGRAPGGPPSNVAISHVRLGGRAAFMGKVGEDDFGDELVLMMNQERVQTRAVKFDENSKTACTRVKIKFKDGKMMAETVKEPPEDSLFASELNLAVLKEARIFHFNSEVLTSPTMQSTLFTAIQWSKKFGGLIFFDLNLPLPLWRSRNETRKLIKKAWNEANIIEVSQQELEFLLDEDYYERRRNYTPQYFAEDFDQTKNRRDYYHYTPEEIKSLWHDKLKLLVVTDGTLRLHYYTPTFDGVVIGTEDVLITPFTCDRTGSGDAVVAGIMRKLTTCPEMFEDQDVMERQLRFAVAAGIIAQWTIGAVRGFPTESATQNLKEQVYVPSMW
B9: FLN2 (protein, UniProt F4I0K2 1-614)
chain: MASLSFTQFLSFPRCNADVPCLLQSHGFVKFRGERWNGKQSFSMAAGRRKLSESAPLEEEGNDGNGAVVGKKPSKSVKRTTKKKVVVKDEPLEEISEFLVDNDDVLDKESIVSALKPKKTRTRKKAAAASSDVEEVKTEKKVRRKRTVKKDKDVEDDLATIMDAEVSDVEEALAVESTDTESEEEEIDLSKHEGEDISHTYGWPPLVCCFGSAQHAFVPSGRPANRLLDYELHERMRDAKWAPEKYIRAPGGCAGGVAIALASLGGKVAFMGKLGADDYGQAMLYYLNVCKVQTRSVKIDGKRVTACSTMKISKRGRLKSTCIKPCAEDSLSKSEINVDVLKEAKMFYFSTHSLLDKKMMSTTIQAIKISKQLGNVIFYDLNLPLPLWHSSEETKSFIQEVWNLADVIEITKQELEFLCGIEPTEEFDTENNDISKFVHYPPETVEQLWHENLKVLFVTNGTSKIHYYTKEHNGAVSGMEDVPITPFTRDMSASGDGIVAGLIRMLTVQPDLMNNKGYLERTARYAIECGIIDQWLLAQTRGYPPKDDMEEEEDDEEEDEVESDPNGIRSITEKEYRTSKPYDEPDGPYVMKPVEEREYKKLELVGSMFEDGSL

In the first assay the target is SL1 CT (C-terminal of mature SL1) (Arabidopsis thaliana). Kind of assay: two-hybrid; SL1 truncations (CTP, NT, MTERF, CT, mature protein) against SL1, PAP12/PTAC7, PAP5/PTAC12 and PAP7/PTAC14; which side was bait is not stated; yeast strain Y2H Gold; dropout media as for a1.
Consider B1, for which the binding entry was “no binding”.
Regarding B2, the binding result is recorded as “no binding”.
On the same count and under the same terms, the value for B3 was “no binding”.

A further assay addresses SL1 MTERF (mTERF domains) (Arabidopsis thaliana). The assay is described as above.
For B1, the binding entry is reported as “no binding”.
Consider B2, for which the binding entry is on record as “no binding”.
Turning to B3, the binding entry was “no binding”.

In a further assay the target is SL1 NT (N-terminal of mature SL1) (Arabidopsis thaliana). The description is as above.
For the molecule B1, the binding result is “binds”.
Take B2: the binding result was “binds”.
On to B3, for which the binding entry is given as “binds”.

The target in the next assay is SL1 lacking the N-terminal transit peptide (GST-SL1; His fusion of SL1) (Arabidopsis thaliana). Description: pull-down; GST-SL1 coupled to glutathione resin, incubated with His fusion proteins; PBS pH 7.4; washed with PBS pH 7.4, 0.5% Triton X-100, 0.5 mM PMSF; bound proteins detected by Western blot with anti-His.
As for B4, the binding entry is given as “binds”.
Still for that read-out and setting: the value for B5 was “binds”.
On to B6, for which the binding entry is listed as “binds”.

A further assay has as its target Seedling Lethal 1 (SL1/mTERF3) (Arabidopsis thaliana). Kind of assay: two-hybrid; SL1 as bait (GAL4 DNA binding domain, pGBKT7), PEP complex proteins and chloroplast mTERF proteins as prey (GAL4 activation domain, pGADT7); yeast strain Y2H Gold; growth on SD/-Trp-Leu, SD/-Trp-Leu-His and SD/-Trp-Leu-His-Ade.
Regarding B1, the binding result is listed as “binds”.
Regarding B7, the binding entry is “no binding”.
In the case of B2, the binding result is “binds”.
On the same count and under the same terms, the value for B8 was “no binding”; that for B3 was “binds”; that for B9 was “no binding”.
